From article doi:10.1101/2024.04.20.590343
Results are given in words; binding and its absence hold for the method and conditions named. Some binding calls cover weakened binding; strength is not graded here.

Target: T1, ScPho2 Pho4int (aa 112–407) (S. cerevisiae) (UniProt P07269)
T1 sequence: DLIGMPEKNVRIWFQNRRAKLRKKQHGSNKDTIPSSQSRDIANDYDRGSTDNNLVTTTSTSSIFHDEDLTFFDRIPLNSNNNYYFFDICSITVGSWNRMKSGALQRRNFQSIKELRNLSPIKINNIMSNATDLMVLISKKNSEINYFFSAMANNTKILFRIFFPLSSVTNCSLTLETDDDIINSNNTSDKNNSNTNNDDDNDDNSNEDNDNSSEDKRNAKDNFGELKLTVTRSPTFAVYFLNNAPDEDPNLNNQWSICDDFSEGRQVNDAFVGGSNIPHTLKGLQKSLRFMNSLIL
Test: two-hybrid; Gal4 AD and Gal4 DBD fusions (pGAD-C3, pGBD-C3) co-transformed into a gal4Δ gal80Δ S. cerevisiae strain, selected on SD -leu -trp; patched, grown at 30°C for 24 hours, replica plated onto SD -leu -trp -ade -his; imaged after 45–50 hours; two independent transformants

B1: ScPho4ΔDBD (aa 2–250) (domain or fragment, UniProt P07270 2-250)
chain: GRTTSEGIHGFVDDLEPKSSILDKVGDFITVNTKRHDGREDFNEQNDELNSQENHNSSENGNENENEQDSLALDDLDRAFELVEGMDMDWMMPSHAHHSPATTATIKPRLLYSPLIHTQSAVPVTISPNLVATATSTTSANKVTKNKSNSSPYLNKRRGKPGPDSATSLFELPDSVIPTPKPKPKPKQYPKVILPSNSTRRVSPVTAKTSSSAEGVVVASESPVIAPHGSSHSRSLSKRRSSGALVDDD
For B1, which binding is on record?
The binding was “binds”.
